Experimental data published in paper PMC5218534, “Structural and biochemical analyses of the DEAD-box ATPase Sub2 in association with THO or Yra1” (eLife, 2017).

Target: T1, Tho2 (residues 1-1207), subunit of THO* (S. cerevisiae) (UniProt P53552)
T1 sequence: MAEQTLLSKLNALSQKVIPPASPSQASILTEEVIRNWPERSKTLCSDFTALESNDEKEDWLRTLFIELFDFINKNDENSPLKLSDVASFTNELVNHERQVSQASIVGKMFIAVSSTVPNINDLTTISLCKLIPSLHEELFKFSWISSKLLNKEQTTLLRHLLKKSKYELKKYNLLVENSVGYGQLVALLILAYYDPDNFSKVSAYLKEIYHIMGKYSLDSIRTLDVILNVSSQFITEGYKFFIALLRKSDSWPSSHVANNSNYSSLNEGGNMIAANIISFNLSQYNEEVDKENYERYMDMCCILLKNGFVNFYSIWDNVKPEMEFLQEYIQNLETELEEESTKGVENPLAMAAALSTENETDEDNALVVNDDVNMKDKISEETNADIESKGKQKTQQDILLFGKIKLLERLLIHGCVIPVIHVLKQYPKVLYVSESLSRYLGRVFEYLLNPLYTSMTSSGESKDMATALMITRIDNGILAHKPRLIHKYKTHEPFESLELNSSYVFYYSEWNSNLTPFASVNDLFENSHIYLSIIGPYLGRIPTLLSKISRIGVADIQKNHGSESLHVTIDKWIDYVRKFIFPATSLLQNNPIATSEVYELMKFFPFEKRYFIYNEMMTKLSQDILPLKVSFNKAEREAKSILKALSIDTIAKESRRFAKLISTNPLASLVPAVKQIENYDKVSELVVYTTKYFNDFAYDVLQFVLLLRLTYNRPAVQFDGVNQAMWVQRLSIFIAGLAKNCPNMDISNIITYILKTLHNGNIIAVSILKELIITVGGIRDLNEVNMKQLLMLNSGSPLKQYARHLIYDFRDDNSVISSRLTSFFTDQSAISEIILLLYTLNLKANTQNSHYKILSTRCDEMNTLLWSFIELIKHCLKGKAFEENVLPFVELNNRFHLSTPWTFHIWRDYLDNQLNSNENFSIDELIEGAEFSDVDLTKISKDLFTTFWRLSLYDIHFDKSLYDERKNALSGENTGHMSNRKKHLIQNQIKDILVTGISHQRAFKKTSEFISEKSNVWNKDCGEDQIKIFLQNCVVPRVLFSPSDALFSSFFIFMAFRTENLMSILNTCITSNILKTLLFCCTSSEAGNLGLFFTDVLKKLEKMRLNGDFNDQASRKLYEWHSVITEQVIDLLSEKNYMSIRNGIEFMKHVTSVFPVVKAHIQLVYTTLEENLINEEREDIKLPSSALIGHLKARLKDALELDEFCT
Experiment: co-purification of co-expressed subunits (Ni2+-affinity, mono Q, Superose 6 size exclusion); THO* subunits co-expressed in High-Five cells; Tho2 and Tex1 with N-terminal His tags, Hpr1, Mft1 and Thp2 untagged; 4 °C; SDS-PAGE with Coomassie stain of the purified complex

- binding: binds
Substance: Saccharomyces bayanus Tex1 (residues 1-380), subunit of THO* (S. bayanus) (domain or fragment)

These are yes or no findings as the source states them, for the method shown. Binding seen in cells or lysates may run through a third protein. Binding can be weak; no strength is given.
